According to the supplement of paper PMC12067093, “Discovery and optimisation of a covalent ligand for TRIM25 and its application to targeted protein ubiquitination” (Chemical Science, 2025):
The other results are listed elsewhere or left out.

Amino acid sequences for entries named in this document (tags omitted). A change or cut given only in a name is not applied to a line headed by its entry.
UniProt Q9HBH1: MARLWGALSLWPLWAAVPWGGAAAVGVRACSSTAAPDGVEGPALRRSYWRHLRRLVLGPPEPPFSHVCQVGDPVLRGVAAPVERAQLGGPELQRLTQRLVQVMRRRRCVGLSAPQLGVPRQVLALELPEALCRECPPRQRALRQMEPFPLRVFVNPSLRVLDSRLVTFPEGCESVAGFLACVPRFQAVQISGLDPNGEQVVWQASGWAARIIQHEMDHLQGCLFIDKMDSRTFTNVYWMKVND
UniProt Q86SE9: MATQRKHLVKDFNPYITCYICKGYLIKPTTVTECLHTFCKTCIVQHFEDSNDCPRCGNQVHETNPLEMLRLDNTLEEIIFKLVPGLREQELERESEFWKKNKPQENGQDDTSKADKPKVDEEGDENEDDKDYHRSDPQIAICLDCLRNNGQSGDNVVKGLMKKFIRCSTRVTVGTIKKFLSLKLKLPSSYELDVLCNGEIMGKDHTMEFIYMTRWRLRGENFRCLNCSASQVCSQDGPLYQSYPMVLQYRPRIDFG
UniProt P08559, whole entry, looked up: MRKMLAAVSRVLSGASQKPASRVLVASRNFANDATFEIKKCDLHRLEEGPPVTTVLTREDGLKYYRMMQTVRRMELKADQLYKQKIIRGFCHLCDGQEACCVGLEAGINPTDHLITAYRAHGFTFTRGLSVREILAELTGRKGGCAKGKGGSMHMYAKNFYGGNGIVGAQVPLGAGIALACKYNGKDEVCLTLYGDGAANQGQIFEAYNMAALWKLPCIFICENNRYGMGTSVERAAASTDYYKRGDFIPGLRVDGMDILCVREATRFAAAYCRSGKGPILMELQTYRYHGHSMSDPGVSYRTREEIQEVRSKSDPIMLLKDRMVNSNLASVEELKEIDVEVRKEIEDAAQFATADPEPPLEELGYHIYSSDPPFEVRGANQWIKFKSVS
UniProt Q29RF7: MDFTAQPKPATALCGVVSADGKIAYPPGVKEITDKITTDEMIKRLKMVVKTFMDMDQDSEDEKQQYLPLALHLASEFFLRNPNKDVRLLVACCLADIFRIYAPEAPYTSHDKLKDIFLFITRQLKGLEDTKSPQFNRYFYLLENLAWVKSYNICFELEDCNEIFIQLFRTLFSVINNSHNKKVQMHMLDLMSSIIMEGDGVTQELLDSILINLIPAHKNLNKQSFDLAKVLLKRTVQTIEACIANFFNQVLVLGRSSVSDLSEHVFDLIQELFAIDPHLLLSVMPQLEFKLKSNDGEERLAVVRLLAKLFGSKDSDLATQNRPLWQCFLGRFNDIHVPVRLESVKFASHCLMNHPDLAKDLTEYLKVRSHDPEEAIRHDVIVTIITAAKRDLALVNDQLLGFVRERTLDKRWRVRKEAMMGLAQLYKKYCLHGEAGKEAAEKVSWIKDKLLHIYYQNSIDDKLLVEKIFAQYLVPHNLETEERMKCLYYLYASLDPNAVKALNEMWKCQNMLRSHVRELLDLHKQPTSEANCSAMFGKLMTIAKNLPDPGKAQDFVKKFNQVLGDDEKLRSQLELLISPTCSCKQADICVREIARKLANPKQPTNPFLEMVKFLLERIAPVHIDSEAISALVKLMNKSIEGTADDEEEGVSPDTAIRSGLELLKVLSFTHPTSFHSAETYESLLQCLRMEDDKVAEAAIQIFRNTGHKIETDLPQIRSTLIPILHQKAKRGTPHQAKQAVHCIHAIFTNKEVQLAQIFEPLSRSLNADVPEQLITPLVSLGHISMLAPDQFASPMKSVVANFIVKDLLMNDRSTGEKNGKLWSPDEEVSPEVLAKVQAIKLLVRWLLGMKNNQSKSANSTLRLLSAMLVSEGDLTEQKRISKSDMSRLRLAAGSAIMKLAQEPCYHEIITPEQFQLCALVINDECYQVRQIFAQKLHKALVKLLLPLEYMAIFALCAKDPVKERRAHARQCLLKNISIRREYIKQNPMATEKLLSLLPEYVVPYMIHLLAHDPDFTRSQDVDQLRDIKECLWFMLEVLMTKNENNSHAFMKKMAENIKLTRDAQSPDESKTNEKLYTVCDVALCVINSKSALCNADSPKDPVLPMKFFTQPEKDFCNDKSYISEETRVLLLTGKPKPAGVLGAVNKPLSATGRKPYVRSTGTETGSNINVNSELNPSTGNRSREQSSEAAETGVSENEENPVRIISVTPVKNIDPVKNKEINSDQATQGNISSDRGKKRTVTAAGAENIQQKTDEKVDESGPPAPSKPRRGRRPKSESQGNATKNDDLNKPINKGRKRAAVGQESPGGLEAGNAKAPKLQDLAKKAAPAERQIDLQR
UniProt Q6P996: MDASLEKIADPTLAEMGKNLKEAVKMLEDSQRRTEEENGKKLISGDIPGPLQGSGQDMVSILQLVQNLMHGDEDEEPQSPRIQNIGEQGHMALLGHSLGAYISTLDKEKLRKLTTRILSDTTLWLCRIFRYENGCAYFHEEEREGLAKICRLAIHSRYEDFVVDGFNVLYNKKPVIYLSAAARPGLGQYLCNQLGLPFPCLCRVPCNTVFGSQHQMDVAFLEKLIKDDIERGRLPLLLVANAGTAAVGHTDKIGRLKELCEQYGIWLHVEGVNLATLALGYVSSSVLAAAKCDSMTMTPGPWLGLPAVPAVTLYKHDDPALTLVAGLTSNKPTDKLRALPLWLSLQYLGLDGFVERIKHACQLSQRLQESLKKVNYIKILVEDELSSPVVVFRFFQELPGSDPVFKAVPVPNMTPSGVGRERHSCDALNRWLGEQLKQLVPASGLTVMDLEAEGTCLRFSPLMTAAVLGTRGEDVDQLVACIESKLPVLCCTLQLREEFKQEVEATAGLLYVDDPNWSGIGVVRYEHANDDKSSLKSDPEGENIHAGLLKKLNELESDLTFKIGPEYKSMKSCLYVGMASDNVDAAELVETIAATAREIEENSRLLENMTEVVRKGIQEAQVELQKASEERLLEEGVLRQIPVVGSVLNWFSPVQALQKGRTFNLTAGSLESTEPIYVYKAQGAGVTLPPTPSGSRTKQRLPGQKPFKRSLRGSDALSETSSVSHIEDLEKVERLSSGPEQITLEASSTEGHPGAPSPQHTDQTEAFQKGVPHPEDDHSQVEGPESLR
UniProt Q9HBE1: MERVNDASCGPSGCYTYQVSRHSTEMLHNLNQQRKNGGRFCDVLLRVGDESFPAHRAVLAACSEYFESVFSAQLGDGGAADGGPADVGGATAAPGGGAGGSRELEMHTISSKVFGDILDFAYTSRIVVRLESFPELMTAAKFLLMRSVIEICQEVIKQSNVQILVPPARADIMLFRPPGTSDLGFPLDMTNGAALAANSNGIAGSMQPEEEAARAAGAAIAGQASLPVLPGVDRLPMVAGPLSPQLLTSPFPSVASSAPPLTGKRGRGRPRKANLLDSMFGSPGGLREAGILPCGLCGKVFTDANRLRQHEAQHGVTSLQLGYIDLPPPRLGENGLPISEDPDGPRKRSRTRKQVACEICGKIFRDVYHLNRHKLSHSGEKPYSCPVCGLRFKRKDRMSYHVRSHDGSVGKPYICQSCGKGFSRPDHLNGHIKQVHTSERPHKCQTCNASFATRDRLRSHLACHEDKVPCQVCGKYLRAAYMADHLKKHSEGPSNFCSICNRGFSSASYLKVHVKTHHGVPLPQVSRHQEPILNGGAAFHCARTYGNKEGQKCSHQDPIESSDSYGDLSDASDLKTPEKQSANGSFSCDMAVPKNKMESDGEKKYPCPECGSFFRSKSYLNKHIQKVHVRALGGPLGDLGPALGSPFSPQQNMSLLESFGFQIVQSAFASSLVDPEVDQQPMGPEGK
UniProt Q9H0N5: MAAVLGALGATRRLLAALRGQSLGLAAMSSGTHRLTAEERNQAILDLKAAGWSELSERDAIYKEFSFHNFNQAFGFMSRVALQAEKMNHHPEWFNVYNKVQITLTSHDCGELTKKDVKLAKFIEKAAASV
UniProt P12004, whole entry, looked up: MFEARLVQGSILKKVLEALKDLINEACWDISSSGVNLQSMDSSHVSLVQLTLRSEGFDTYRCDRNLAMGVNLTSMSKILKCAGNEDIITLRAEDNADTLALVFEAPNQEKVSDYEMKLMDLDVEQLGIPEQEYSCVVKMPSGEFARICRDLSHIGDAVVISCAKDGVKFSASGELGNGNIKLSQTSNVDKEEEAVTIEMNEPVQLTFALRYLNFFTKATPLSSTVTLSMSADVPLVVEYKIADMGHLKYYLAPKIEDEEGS
UniProt Q9NTI5: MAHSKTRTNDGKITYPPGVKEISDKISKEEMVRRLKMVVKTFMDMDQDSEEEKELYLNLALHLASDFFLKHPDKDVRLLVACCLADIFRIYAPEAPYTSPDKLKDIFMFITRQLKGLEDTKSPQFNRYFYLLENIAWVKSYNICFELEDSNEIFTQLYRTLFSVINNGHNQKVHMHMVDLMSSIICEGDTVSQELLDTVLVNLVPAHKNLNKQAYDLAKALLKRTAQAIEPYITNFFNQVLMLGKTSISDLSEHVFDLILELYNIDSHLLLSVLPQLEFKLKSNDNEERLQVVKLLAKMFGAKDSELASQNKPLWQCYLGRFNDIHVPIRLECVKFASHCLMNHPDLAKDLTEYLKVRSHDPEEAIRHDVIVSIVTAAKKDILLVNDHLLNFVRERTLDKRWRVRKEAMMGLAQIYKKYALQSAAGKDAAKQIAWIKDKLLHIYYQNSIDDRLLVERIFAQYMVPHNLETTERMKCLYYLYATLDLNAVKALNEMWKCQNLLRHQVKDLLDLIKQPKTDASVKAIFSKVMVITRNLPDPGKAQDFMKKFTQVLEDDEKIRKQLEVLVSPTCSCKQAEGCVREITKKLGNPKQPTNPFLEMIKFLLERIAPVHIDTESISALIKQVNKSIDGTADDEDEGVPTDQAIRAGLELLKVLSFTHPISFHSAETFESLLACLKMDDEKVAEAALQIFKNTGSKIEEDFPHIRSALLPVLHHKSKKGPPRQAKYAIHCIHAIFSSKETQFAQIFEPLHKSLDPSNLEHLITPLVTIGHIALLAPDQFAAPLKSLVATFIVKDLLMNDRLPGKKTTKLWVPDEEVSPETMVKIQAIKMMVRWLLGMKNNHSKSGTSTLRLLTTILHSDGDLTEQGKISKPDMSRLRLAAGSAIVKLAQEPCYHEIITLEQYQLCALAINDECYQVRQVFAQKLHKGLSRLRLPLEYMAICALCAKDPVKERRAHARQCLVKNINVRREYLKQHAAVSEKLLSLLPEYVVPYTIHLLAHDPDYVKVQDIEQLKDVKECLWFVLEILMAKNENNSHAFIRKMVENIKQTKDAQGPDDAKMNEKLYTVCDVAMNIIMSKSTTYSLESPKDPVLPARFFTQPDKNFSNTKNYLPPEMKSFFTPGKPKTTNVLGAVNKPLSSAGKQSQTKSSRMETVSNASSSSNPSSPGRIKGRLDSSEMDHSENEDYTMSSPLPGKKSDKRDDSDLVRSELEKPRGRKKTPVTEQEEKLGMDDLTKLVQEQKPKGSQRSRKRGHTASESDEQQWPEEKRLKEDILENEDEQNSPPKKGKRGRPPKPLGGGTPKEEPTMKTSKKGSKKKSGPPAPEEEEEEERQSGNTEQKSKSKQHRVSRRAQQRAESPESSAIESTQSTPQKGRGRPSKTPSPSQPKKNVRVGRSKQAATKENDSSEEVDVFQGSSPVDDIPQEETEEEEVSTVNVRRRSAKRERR
UniProt Q15084: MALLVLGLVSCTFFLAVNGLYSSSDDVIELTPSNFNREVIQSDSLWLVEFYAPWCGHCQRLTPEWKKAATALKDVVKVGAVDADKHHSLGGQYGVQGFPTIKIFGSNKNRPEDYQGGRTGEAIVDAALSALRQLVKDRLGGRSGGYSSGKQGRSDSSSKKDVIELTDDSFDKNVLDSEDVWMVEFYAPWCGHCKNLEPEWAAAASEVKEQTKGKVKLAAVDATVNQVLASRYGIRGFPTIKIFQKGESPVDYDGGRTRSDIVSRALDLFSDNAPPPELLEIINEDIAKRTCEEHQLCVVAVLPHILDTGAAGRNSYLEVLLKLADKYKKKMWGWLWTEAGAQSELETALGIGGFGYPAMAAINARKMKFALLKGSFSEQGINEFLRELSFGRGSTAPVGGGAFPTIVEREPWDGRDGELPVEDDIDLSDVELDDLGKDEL
UniProt P05166: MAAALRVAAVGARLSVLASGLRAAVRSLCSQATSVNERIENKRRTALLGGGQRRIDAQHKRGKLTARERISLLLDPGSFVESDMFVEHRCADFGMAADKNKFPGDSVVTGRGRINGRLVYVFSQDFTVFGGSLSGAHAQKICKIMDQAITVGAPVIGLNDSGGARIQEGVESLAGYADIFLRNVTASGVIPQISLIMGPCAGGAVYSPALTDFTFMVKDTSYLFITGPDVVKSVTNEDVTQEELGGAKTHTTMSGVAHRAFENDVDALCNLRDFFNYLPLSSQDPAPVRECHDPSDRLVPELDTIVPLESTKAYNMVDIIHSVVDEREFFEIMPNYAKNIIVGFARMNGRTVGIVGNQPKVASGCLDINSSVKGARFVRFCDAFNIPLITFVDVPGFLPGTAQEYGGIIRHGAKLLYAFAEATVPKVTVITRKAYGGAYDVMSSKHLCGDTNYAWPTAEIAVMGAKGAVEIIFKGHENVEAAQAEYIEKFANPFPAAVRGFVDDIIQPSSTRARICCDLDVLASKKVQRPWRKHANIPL

Compound: CC1Cc2ccccc2N1C(=O)C1CCCN(C1)C(=O)CCl (mixture of isomers) [TRIM25 ligand 11 (diastereomer mixture)]
Assay: probe-labelled cysteine peptide fold change vs DMSO (competition) (log2 fold change); higher = less target engagement (more negative = stronger competition)
Settings: 50 µM; THP-1; incubation time: 4 h
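Further: competitive chemoproteomic profiling in live THP-1 cells with an iodoacetamide desthiobiotin (IA-DTB) probe, comparing probe-labelled peptide intensities in compound-treated cells against DMSO-treated controls.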

Target | probe-labelled cysteine peptide fold change
PDF_Q9HBH1_172_LVTFPEGCESVAGFLACVPR (UniProt Q9HBH1) | 0.208
PCCA_P05165_363_LQVEHPVTECITGLDLVQEMIR (UniProt P05165) | 0.22
PCGF5_Q86SE9_34_GYLIKPTTVTECLHTFCK (UniProt Q86SE9) | -0.054
PDLIM1_O00151_283_HPECYVCTDCGTNLK (UniProt O00151) | -0.0363
PDHA1_P08559_261_GDFIPGLRVDGMDILCVR (UniProt P08559) | -0.121
PDLIM2_Q96JY6_334_GHFWVGDELYCEK (UniProt Q96JY6) | 0.0848
PDS5A_Q29RF7_742_QAVHCIHAIFTNK (UniProt Q29RF7) | 0.122
PDS5A_Q29RF7_1093_SALCNADSPKDPVLPMK (UniProt Q29RF7) | -0.151
PDLIM7_Q9NR12_282+285_TPVCHQCHK (UniProt Q9NR12) | 0.000168
PDF_Q9HBH1_68_LVLGPPEPPFSHVCQVGDPVLR (UniProt Q9HBH1) | 0.0851
PDHA1_P08559_222_LPCIFICENNR (UniProt P08559) | 0.337
PDXDC1_Q6P996_361_HACQLSQR (UniProt Q6P996) | 0.066
PATZ1_Q9HBE1_463_SHLACHEDK (UniProt Q9HBE1) | -0.0716
PCBD2_Q9H0N5_109_VQITLTSHDCGELTKK (UniProt Q9H0N5) | -0.114
PDP1_Q9P0J1_132_SAATCLQTR (UniProt Q9P0J1) | 0.00661
PDS5A_Q29RF7_14_PATALCGVVSADGK (UniProt Q29RF7) | -0.069
PDE12_Q6L8Q7_268+277_ELESVCVVEAGPGTCTFDHR (UniProt Q6L8Q7) | -0.295
PCNA_P12004_135_LMDLDVEQLGIPEQEYSCVVK (UniProt P12004) | 0.0916

Target | probe-labelled cysteine peptide fold change
PDHA1_P08559_41_KCDLHR (UniProt P08559) | -0.0807
PDS5A_Q29RF7_350_FASHCLMNHPDLAK (UniProt Q29RF7) | -0.0499
PDS5B_Q9NTI5_943_LPLEYMAICALCAK (UniProt Q9NTI5) | 0.229
PCNT_O95613_2059_VLEDCQLPK (UniProt O95613) | -0.0562
PBX1_P40424_172_YEQACNEFTTHVMNLLR (UniProt P40424) | -0.00549
PARP1_P09874_908_SANYCHTSQGDPIGLILLGEVALGNMYELK (UniProt P09874) | -0.761
PARP1_P09874_429_ASLCISTK (UniProt P09874) | 0.0281
PDHA1_P08559_181_NFYGGNGIVGAQVPLGAGIALACK (UniProt P08559) | 0.26
PDS5B_Q9NTI5_732_YAIHCIHAIFSSK (UniProt Q9NTI5) | 0.0228
PDIA6_Q15084_193_NVLDSEDVWMVEFYAPWCGHCK (UniProt Q15084) | -0.377
PATZ1_Q9HBE1_297_EAGILPCGLCGK (UniProt Q9HBE1) | -0.0723
PASK_Q96RG2_759+761_ELFFSDQTDQTSSNCSCATSELR (UniProt Q96RG2) | 0.0688
PBRM1_Q86U86_50_LSNLPTVDPIAVCHELYNTIR (UniProt Q86U86) | -0.0725
PCBP3_P57721_195_QICVVMLESPPK (UniProt P57721) | 0.0615
PCCB_P05166_448_HLCGDTNYAWPTAEIAVMGAK (UniProt P05166) | 0.0486
PCGF5_Q86SE9_42_TCIVQHFEDSNDCPR (UniProt Q86SE9) | -0.0616
PDXDC1_Q6P996_573_SCLYVGMASDNVDAAELVETIAATAR (UniProt Q6P996) | -0.106
PDIA6_Q15084_58_EVIQSDSLWLVEFYAPWCGHCQR (UniProt Q15084) | -0.16

Look-ups from the results shown.
probe-labelled cysteine peptide fold change with PDIA6_Q15084_58_EVIQSDSLWLVEFYAPWCGHCQR (UniProt Q15084) is entered as -0.16
probe-labelled cysteine peptide fold change with PDHA1_P08559_261_GDFIPGLRVDGMDILCVR (UniProt P08559) is entered as -0.121
